# In the supplement of paper PMC4604168 (melanoma cell lines):
# The other results are listed elsewhere or left out. Many values rest on one well or one pass, so single values are uncertain.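 Imaging used 1,536-well plates; nuclei positive for cleaved PARP by antibody were divided by total DNA-stained nuclei to yield the apoptosis fraction. Doses for screening kept most cells viable, and cell lines differ markedly in resting and induced cleaved-PARP levels.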
# Test system: RVH-421
# Assay: cleaved PARP positive nuclei fraction relative to DMSO control; melanoma cells; higher = more apoptosis
# Details: library dose: low library concentration; 72 h
row,Compound,cleaved PARP positive nuclei fraction
1,"C[C@@H](N)c1ccc(C(=O)Nc2ccnc3[nH]ccc23)cc1 + COc1cc(N2CCC(N3CCN(C)CC3)CC2)ccc1Nc1ncc(Cl)c(Nc2ccccc2S(=O)(=O)C(C)C)n1 [NVP-TAE684] (first compound 0.4 µM, partner dose 0.08 µM)",140%
2,"CCN(CC)CCNC(=O)c1c(C)[nH]c(/C=C2\C(=O)Nc3ccc(F)cc32)c1C [sunitinib] + O=c1cc(-c2cccc3c2Sc2ccccc2S3)oc(N2CCOCC2)c1 [KU55933] (first compound 0.4 µM, partner dose 1 µM)",144%
3,"C[C@]1(O)C[C@@H](c2nc(-c3ccc4ccc(-c5ccccc5)nc4c3)c3c(N)nccn32)C1 + O=C(Nc1ccccc1)c1cc([N+](=O)[O-])ccc1Cl [GW9662] (first compound 0.4 µM, partner dose 2 µM)",66.3%
4,"CCCCCCCCc1ccc(CCC(N)(CO)CO)cc1 [fingolimod] + NCC(=O)Nc1ccc(-n2nc(C(F)(F)F)cc2-c2ccc3c(ccc4ccccc43)c2)cc1 [OSU03012] (first compound 2 µM, partner dose 1 µM)",67.8%
5,"CC1(C)CCC(c2ccc(Cl)cc2)=C(CN2CCN(c3ccc(C(=O)NS(=O)(=O)c4ccc(N[C@H](CCN5CCOCC5)CSc5ccccc5)c(S(=O)(=O)C(F)(F)F)c4)cc3)CC2)C1 + CO[C@@H]1[C@H](N(C)C(=O)c2ccccc2)C[C@H]2O[C@]1(C)n1c3ccccc3c3c4c(c5c6ccccc6n2c5c31)C(=O)NC4 [Midostaurin] (first compound 0.4 µM, partner dose 0.08 µM)",74.5%
6,"C[C@]1(O)C[C@@H](c2nc(-c3ccc4ccc(-c5ccccc5)nc4c3)c3c(N)nccn32)C1 + Cc1cc([N+](=O)[O-])ccc1NS(=O)(=O)c1cc(Cl)ccc1Cl [FH535] (first compound 0.4 µM, partner dose 1 µM)",90.3%

# Test system: SkMel28
# Assay: as above
# Details: library dose: low library concentration; 72 h
row,Compound,cleaved PARP positive nuclei fraction
1,"C[C@@H](N)c1ccc(C(=O)Nc2ccnc3[nH]ccc23)cc1 + Cc1cc([N+](=O)[O-])ccc1NS(=O)(=O)c1cc(Cl)ccc1Cl [FH535] (first compound 0.4 µM, partner dose 1 µM)",299%
2,"CS(=O)(=O)c1ccc(C(=O)Nc2ccc(Cl)c(-c3ccccn3)c2)c(Cl)c1 [vismodegib] + O=S(=O)(c1ccccc1)N(CC(F)(F)F)c1ccc(C(O)(C(F)(F)F)C(F)(F)F)cc1 [T0901317] (first compound 1 µM, partner dose 1.4 µM)",196%
3,"CCN(CC)CCNC(=O)c1c(C)[nH]c(/C=C2\C(=O)Nc3ccc(F)cc32)c1C [sunitinib] + COc1cc(N2CCC(N3CCN(C)CC3)CC2)ccc1Nc1ncc(Cl)c(Nc2ccccc2S(=O)(=O)C(C)C)n1 [NVP-TAE684] (first compound 0.4 µM, partner dose 0.08 µM)",208%
4,"CC1(C)CCC(c2ccc(Cl)cc2)=C(CN2CCN(c3ccc(C(=O)NS(=O)(=O)c4ccc(N[C@H](CCN5CCOCC5)CSc5ccccc5)c(S(=O)(=O)C(F)(F)F)c4)cc3)CC2)C1 + CC(C)CCN1c2nc(Nc3cc(F)c(O)c(F)c3)ncc2N(C)C(=O)C1C [BID1870] (first compound 0.4 µM, partner dose 0.2 µM)",88.8%
5,"C[C@@H](N)c1ccc(C(=O)Nc2ccnc3[nH]ccc23)cc1 + CN(NC(=O)CC(=O)NN(C)C(=S)c1ccccc1)C(=S)c1ccccc1 [STA4783] (first compound 0.4 µM, partner dose 0.006 µM)",571%
6,"NC1(c2ccc(-c3nc4ccn5c(=O)[nH]nc5c4cc3-c3ccccc3)cc2)CCC1 + COc1cc(N2CCC(N3CCN(C)CC3)CC2)ccc1Nc1ncc(Cl)c(Nc2ccccc2S(=O)(=O)C(C)C)n1 [NVP-TAE684] (first compound 0.4 µM, partner dose 0.08 µM)",246%
7,"NC(=O)c1ccc(N(C(N)=O)c2c(F)cccc2F)nc1-c1ccc(F)cc1F + CCCCCCCCCCCC1=C(O)C(=O)C=C(O)C1=O [Embelin] (first compound 0.4 µM, partner dose 1.2 µM)",115%
8,"CS(=O)(=O)c1ccc(C(=O)Nc2ccc(Cl)c(-c3ccccn3)c2)c(Cl)c1 [vismodegib] + NCC(=O)Nc1ccc(-n2nc(C(F)(F)F)cc2-c2ccc3c(ccc4ccccc43)c2)cc1 [OSU03012] (first compound 1 µM, partner dose 1 µM)",218%

# Given as tab-separated lines: entries from further up
row	Compound	cleaved PARP positive nuclei fraction
3	CCN(CC)CCNC(=O)c1c(C)[nH]c(/C=C2\C(=O)Nc3ccc(F)cc32)c1C [sunitinib] + COc1cc(N2CCC(N3CCN(C)CC3)CC2)ccc1Nc1ncc(Cl)c(Nc2ccccc2S(=O)(=O)C(C)C)n1 [NVP-TAE684] (first compound 0.4 µM, partner dose 0.08 µM)	208%
4	CC1(C)CCC(c2ccc(Cl)cc2)=C(CN2CCN(c3ccc(C(=O)NS(=O)(=O)c4ccc(N[C@H](CCN5CCOCC5)CSc5ccccc5)c(S(=O)(=O)C(F)(F)F)c4)cc3)CC2)C1 + CC(C)CCN1c2nc(Nc3cc(F)c(O)c(F)c3)ncc2N(C)C(=O)C1C [BID1870] (first compound 0.4 µM, partner dose 0.2 µM)	88.8%
